PubChem BioAssay AID743454 | Peter MacCallum Cancer Centre, 2014
Purpose: 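Genes whose loss kills vorinostat-resistant colon cancer cells under vorinostat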 (primary screen). Cells: human HCT116-VR colon cancer cells, selected for vorinostat resistance. Knock-down reagent: siRNA pool against human genes, 40 nM siRNA pool. Timing: vorinostat for 24 h, read-out about 72 h after transfection. Conditions: vorinostat at 2.5 µM final. Measurement: 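Cell viability by CellTiter-Fluor and caspase 3/7 activity by luminescence, each scaled to mock wells per plate, duplicates averaged, then robust z-scored over all plates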. Scale: viability robust z-score: higher = more viable cells than screen typical; caspase robust z-score: higher = more caspase 3/7 activity than screen typical. Active means: 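a knock-down is a hit when classed RV1 or RV2 for lowered viability, or CA1 or CA2 for caspase activation; those lethal without drug were dropped; hits were retested singly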.
Here is an unselected part of about 18,000 deposited reagents. Of all reagents, 450 (2.5%) were called active. 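Single biological run; no consistent viability z cut-off exists, so the class columns, not z-scores, define the calls.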

The first 3 records as a preview:
no.	target	viability hit class	caspase hit class	viability robust z-score	caspase robust z-score	outcome
1	MYO6	no change	no change	0.7	-0.6	inactive
2	FBXO4	no change	no change	-1.86	1.85	inactive
3	INSRR	no change	no change	0.26	-0.46	inactive

Results, from the first entry:
no.	target	viability hit class	caspase hit class	viability robust z-score	caspase robust z-score	outcome
1	MYO6	no change	no change	0.7	-0.6	inactive
2	FBXO4	no change	no change	-1.86	1.85	inactive
3	INSRR	no change	no change	0.26	-0.46	inactive
4	DHX34	no change	no change	0.82	-0.03	inactive
5	RIF1	no change	no change	0.4	-0.22	inactive
6	PLCB1	no change	no change	0.53	-0.5	inactive
7	GRIK2	no change	no change	-0.03	-0.31	inactive
8	SLC43A2	no change	no change	0.62	0.5	inactive
9	DLGAP1-AS1	no change	no change	1.4	0.3	inactive
10	MAPKAPK5	no change	no change	0.28	-0.3	inactive
11	ASAP1	no change	no change	-0.56	1.65	inactive
12	SLC39A6	no change	no change	0.17	3.29	inactive
13	OAF	no change	no change	-1.59	2.1	inactive
14	SSX9P	no change	no change	0.42	-0.26	inactive
15	ALX3	no change	no change	-0.56	0.44	inactive
16	AQP8	no change	no change	0.15	-0.18	inactive
17	GUCY1A1	no change	no change	0.26	0.22	inactive
18	PPP4C	no change	no change	-0.31	0.62	inactive
19	PTPN23	no change	no change	0.24	-0.95	inactive
20	HMOX2	no change	no change	-0.32	0.91	inactive
21	NME1	no change	no change	0.31	-0.49	inactive
22	MYBPH	no change	no change	-0.39	1.52	inactive
23	ADAT2	no change	no change	0.43	-0.63	inactive
24	KATNAL2	no change	no change	0.01	-0.2	inactive
25	FANCL	no change	no change	0.65	0.66	inactive
26	FAM180A	no change	no change	1.46	-0.86	inactive
27	FBXO40	no change	no change	-0.71	1.68	inactive
28	LILRA4	no change	no change	0.1	-0.06	inactive
29	EXOG	no change	no change	0.75	1.08	inactive
30	TMEM154	no change	no change	0.02	-0.04	inactive
31	MYLK4	no change	no change	-0.87	0.78	inactive
32	SNX1	no change	no change	-0.66	0.49	inactive
33	MSH5	no change	no change	0.84	1.43	inactive
34	VPS53	no change	no change	0.25	-0.55	inactive
35	IFI27L2	no change	no change	-1.18	0.14	inactive
36	CYP27B1	no change	no change	0.2	-0.62	inactive
37	NUP153	no change	no change	-2.57	3.17	inactive
38	PLOD2	no change	no change	0.29	-0.32	inactive
39	KIF18A	no change	no change	-0.72	2.44	inactive
40	TMEM213	no change	no change	-0.82	2.88	inactive
41	BRPF3	no change	no change	1.34	-0.29	inactive
42	TAF12	no change	no change	-1.7	2.49	inactive
43	MFSD2A	no change	no change	-0.52	-0.6	inactive
44	ZSCAN32	no change	no change	-0.44	0.48	inactive
45	ZNF830	RV2 (reduced viability)	CA2 (caspase activation)	-3.5	6.1	active
46	MOB3B	no change	no change	0.19	-0.69	inactive
47	ZNF208	no change	no change	1.06	-0.02	inactive
48	NGFR	no change	no change	1.58	0.59	inactive
49	ACADS	no change	no change	2.13	0.02	inactive
50	APBB1	no change	no change	-1.31	-0.36	inactive
51	OR10A7	no change	no change	1.46	3.51	inactive
52	GPR162	no change	no change	1.2	-0.42	inactive
53	DEAF1	no change	no change	-1.08	-0.25	inactive
54	TMEM8B	no change	no change	-1.84	1.38	inactive
55	MTREX	no change	no change	-1.38	-1.23	inactive
56	CHSY3	no change	no change	0.85	0.18	inactive
57	SCGB1A1	no change	no change	-0.62	2.66	inactive
